Data published in US20260201038A1 (CELLABMED, published 2026).
Results are given in words; binding and its absence hold for the method and conditions named. Some results given as binding are weak or reduced against the parent protein; the word gives no strength.

How the values were obtained:
[1] = target: T1, B7-H3 on mouse cancer cells (mouse) (UniProt Q8VE98); assay: FACS on 3LL, 4T1, Panc-02 and GL-261 mouse cancer cells
T1 sequence: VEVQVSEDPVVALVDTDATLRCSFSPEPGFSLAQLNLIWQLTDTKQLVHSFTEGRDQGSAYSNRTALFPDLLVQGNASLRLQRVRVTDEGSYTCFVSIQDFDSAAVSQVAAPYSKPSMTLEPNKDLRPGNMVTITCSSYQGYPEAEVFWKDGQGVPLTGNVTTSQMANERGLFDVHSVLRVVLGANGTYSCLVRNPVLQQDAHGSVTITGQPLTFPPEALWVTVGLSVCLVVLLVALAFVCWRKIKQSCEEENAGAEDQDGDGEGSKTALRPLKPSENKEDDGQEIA

[2] = target: T1, B7-H3 on mouse cancer cells (mouse); assay: FACS on GL261 cells
[3] = target: T1, B7-H3 on mouse cancer cells (mouse); assay: flow cytometry on mouse cancer cell lines; control = secondary antibody only

binding [1]: binds
binding [2]: binds
binding [3]: binds
B1: G2D IgG (antibody, V domains shown)
VH: QVQLVESGGGLVQPGGSLRLSCSASGFDFSSYPMVWVRQAPGKGLEYVSSINSGGSWTGYGAAVKGRATISRDNSKNTLYLQMNSLRAEDTATYYCARAYGAATIDAWGQGTTVTVSS
VL: SYELTQPPSVSVSPGQTARITCSGGSIGYGWYQQKAPGQAPVTVIYYNDRRPSGIPERFSGSKSGTTNTLTISGVQAEDEADYYCGSADSSSTYTGIFGGGTKLTVL
notes: The back-substitutions (L46T, S66K, V71N in VL); also called humanized 2D; G2D antibody
